Measured values published in paper PMC10539340, “A common human MLKL polymorphism confers resistance to negative regulation by phosphorylation” (Nature Communications, 2023).
No constants are given. Whether binding was seen depends on the method and setting. Some results given as binding are weak or reduced against the parent protein; the word gives no strength.

Target: Mouse MLKL S131P (mouse) (UniProt Q9D2Y4)
Test: native gel or EMSA; Blue-Native PAGE (4-16% NativePAGE) of the crude membrane fraction solubilised in 1% digitonin, from immortalised MDFs stimulated with TNF + IFN-beta for 22 hours; immunoblot

B1: Mouse MLKL S131P (protein, UniProt Q9D2Y4 1-472)
chain: MDKLGQIIKLGQLIYEQCEKMKYCRKQCQRLGNRVHGLLQPLQRLQAQGKKNLPDDITAALGRFDEVLKEANQQIEKFSKKSHIWKFVSVGNDKILFHEVNEKLRDVWEELLLLLQVYHWNTVSDVSQPAPWQQEDRQDAEEDGNENMKVILMQLQISVEEINKTLKQCSLKPTQEIPQDLQIKEIPKEHLGPPWTKLKTSKMSTIYRGEYHRSPVTIKVFNNPQAESVGIVRFTFNDEIKTMKKFDSPNILRIFGICIDQTVKPPEFSIVMEYCELGTLRELLDREKDLTMSVRSLLVLRAARGLYRLHHSETLHRNISSSSFLVAGGYQVKLAGFELSKTQNSISRTAKSTKAERSSSTIYVSPERLKNPFCLYDIKAEIYSFGIVLWEIATGKIPFEGCDSKKIRELVAEDKKQEPVGQDCPELLREIINECRAHEPSQRPSVDGRSLSGRERILERLSAVEESTDKKV
Question: B1 was tested. Which binding did it give?
Answer: binds
